{"sequences": {"note": "The chains behind the UniProt entries cited, without tags or fusion partners.", "UniProt O00560": "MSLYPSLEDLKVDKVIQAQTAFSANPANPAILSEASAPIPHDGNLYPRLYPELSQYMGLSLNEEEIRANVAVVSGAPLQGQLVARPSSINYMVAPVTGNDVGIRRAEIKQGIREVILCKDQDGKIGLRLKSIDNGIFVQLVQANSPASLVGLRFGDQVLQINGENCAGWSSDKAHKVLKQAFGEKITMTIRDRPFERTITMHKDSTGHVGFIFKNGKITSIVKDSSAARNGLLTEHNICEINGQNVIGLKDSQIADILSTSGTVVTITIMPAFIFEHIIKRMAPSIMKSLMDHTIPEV"}, "source": "paper PMC10352258", "biological_target": "exogenous HSP90 (HSP90 overexpression) (UniProt P07900)", "test": "affinity purification with mass spectrometry; IP-MS in KYSE150 cells with HSP90 overexpression; Orbitrap Fusion Lumos", "note": "These are yes or no findings as the source states them, for the method shown. In cells and extracts the contact can be indirect. Here binding means that the protein was enriched with, or labelled near, the bait; the list need not be complete.", "data": [{"substance": "syndecan binding protein (SDCBP), endogenous (from UniProt O00560 1-298)", "values": [{"measurement": "binding", "value": "binds"}]}]}
